In patent US20260137707A1, “METHODS OF MODULATING ATXN2 EXPRESSION” (University of Utah Research Foundation, priority 2022, published 2026):

Tested on: ATXN2-luc
Experiment: Secondary assays, Bright-Glo luciferase in H2 and S2 cells
Format: cell-based
Conditions: read-out: Mean IC50
Description: Compounds were plated at 2× concentrations in 25 μl in 384 well plates with each compound dose plated in triplicate. An equal volume of S2, H2, or SC cells (24,000 cells/well) suspended in phenol-red free Dulbecco's Modified Eagle Medium (DMEM) with 10% fetal bovine serum and 1× penicillin/streptomycin were added. Cells were grown 24 hrs then assayed first by using the CellTiter-Fluor reagent (20 μl) followed by the addition of Bright-Glo ([…]) luciferase assay, using a multimode plate reader (Beckman DT880). Values were reported as the mean±standard deviation (SD) with n=3. IC50s were determined by the Hill coefficient method using an online tool (https://www.aatbio.com/tools/ic50-calculator).
These 46 compounds were retested at 12 doses and a zero-compound dose, in multiplexed assays in 96-well plates using CellTiter-Fluor to determine cell viability, then Bright-Glo to determine luciferase expression. The values for H2 and S2 were used as replicates to calculate IC50s and to assess cell viability.
For CMV-luc and viability charts, the fitted lines are second-order polynomials. Means and SD are shown.

`CC[C@@H](CO)Nc1nc(NCc2ccccc2)c2ncn(C(C)C)c2n1` [Roscovitine] was tested, and the IC50 was 3.65 µM.
